No constants are given. Whether binding was seen depends on the method and setting. Binding seen in cells or lysates may run through a third protein. Some entries that bind do so weakly or less than the wild type. For some assays here: Sequences can lack the tags named with a protein.

Amino acid sequences for entries named in this document (tags omitted). A change or cut given only in a name is not applied to a line headed by its entry. Chains listed by the source or under a name are the forms on record and can include a tag or linker.
UniProt P49841: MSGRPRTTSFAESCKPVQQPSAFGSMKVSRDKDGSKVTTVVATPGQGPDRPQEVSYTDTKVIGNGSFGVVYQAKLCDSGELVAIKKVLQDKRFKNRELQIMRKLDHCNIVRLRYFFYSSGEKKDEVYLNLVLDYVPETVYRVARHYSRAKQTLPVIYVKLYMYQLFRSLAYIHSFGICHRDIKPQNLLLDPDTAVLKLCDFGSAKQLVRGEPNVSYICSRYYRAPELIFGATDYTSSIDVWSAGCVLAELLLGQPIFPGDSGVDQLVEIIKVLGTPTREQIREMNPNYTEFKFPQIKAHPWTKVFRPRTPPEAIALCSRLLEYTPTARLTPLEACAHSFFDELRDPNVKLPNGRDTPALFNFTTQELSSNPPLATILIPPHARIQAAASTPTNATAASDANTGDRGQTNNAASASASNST
GSK3β full length (CBP tag) (human (by the printed RefSeq entry)) (P49841-2, form named): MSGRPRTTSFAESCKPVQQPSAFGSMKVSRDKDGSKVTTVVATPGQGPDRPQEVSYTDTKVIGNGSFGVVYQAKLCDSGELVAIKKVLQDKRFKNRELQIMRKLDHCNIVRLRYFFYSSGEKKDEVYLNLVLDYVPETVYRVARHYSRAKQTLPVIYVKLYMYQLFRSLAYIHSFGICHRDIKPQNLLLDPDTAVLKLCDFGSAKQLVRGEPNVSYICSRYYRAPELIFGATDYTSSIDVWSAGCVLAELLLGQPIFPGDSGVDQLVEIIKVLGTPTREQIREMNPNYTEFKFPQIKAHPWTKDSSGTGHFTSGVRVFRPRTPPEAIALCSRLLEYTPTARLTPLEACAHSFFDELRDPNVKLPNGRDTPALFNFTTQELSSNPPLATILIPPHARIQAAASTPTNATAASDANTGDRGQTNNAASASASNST
56-353/GSK3β (kinase domain of GSK3β, CBP tag) (human (by the printed RefSeq entry)) (P49841-2, form named): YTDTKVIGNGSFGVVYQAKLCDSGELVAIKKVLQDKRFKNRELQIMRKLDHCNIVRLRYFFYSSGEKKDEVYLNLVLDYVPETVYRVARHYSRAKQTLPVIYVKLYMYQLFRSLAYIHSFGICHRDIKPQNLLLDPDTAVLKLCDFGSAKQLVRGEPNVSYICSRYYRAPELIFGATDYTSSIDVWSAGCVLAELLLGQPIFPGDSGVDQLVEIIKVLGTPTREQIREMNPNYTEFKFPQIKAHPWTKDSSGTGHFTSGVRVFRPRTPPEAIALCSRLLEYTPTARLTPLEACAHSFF
UniProt Q09472: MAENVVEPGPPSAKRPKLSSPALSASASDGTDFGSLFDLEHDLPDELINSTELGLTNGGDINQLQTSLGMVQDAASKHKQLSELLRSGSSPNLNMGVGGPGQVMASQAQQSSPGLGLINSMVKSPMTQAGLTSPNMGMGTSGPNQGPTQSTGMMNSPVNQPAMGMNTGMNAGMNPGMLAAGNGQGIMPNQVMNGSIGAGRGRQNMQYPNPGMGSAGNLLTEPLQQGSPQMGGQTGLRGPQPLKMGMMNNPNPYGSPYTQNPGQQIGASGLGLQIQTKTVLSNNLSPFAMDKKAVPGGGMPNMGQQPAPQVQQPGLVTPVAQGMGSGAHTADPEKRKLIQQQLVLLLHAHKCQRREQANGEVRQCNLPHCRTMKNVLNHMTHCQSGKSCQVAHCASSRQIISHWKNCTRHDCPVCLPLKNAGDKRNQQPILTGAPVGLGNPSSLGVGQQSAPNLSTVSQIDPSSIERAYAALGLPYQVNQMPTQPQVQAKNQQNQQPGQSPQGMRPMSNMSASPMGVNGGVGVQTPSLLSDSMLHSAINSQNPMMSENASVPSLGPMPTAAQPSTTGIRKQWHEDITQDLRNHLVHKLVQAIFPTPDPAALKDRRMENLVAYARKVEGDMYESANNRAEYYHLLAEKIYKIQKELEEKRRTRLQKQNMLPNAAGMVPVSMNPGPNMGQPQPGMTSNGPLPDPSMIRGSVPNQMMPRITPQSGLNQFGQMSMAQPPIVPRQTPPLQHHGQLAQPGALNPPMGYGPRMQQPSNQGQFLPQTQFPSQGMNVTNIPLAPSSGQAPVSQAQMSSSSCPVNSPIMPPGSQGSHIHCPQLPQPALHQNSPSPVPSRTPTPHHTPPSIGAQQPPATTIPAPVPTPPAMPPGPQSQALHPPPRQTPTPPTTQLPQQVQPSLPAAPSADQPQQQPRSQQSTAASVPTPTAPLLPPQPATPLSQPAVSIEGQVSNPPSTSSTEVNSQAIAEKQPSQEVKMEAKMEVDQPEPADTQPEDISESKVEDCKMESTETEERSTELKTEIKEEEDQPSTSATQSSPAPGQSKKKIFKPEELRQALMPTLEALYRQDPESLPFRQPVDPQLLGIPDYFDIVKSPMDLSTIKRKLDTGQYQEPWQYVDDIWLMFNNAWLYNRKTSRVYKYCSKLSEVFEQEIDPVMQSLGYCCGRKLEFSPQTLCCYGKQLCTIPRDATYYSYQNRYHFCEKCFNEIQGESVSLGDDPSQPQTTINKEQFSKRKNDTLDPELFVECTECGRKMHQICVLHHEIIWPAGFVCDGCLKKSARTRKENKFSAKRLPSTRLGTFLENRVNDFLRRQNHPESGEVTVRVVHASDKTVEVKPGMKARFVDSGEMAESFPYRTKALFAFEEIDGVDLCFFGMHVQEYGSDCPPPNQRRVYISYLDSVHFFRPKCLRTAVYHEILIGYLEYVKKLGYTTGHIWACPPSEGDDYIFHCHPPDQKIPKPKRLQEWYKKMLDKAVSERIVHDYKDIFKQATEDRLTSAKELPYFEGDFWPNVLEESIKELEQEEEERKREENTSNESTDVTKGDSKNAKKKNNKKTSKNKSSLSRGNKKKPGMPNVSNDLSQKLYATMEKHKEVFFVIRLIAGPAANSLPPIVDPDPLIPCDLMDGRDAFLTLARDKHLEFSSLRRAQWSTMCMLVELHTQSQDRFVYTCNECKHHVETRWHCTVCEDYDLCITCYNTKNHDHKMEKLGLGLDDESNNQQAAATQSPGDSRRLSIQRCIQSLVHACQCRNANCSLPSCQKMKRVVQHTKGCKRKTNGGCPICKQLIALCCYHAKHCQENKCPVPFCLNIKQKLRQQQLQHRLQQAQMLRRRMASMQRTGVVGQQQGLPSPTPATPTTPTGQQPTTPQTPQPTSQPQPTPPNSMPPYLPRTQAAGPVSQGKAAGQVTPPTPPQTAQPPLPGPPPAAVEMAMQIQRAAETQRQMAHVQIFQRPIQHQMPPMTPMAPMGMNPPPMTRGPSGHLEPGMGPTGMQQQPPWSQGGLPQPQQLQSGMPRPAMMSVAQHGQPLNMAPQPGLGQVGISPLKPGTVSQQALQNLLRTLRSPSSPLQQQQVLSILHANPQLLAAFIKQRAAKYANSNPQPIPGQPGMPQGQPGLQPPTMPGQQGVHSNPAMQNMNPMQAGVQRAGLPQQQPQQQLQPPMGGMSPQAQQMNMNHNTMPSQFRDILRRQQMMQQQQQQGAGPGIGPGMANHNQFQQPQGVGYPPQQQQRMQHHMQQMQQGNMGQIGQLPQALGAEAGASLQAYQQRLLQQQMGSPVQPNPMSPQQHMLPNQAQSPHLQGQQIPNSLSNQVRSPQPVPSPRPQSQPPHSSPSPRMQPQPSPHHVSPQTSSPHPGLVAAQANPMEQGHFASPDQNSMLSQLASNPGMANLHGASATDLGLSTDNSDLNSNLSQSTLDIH

Experiment [1] deals with T1, ETS1 full length (FL) construct purified with streptavidin beads (human (by the printed RefSeq entry)) (UniProt P14921).
T1 sequence: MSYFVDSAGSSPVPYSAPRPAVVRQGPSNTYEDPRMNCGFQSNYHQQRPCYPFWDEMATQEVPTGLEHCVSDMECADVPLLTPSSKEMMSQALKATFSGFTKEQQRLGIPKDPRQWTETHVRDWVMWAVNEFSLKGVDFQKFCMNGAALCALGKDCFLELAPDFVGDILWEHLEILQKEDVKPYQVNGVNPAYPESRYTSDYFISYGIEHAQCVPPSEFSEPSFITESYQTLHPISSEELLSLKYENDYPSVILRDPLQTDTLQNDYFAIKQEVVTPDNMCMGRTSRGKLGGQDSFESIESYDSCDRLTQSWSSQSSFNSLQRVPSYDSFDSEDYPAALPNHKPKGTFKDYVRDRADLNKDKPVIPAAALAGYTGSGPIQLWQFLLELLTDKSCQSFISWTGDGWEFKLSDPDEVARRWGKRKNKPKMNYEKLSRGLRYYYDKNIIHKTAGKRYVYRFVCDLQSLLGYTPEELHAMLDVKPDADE
The experiment is described as follows: pull-down; 293 cells co-transfected with HA-GSK3β or control vector and full length or truncated ETS1 constructs; purification with streptavidin beads; co-precipitated GSK3β detected with an anti-HA antibody.

The target of experiment [2] is T2, ETS1 (endogenous) (human (endogenous in MDAH2774)) (UniProt P14921).
T2 sequence: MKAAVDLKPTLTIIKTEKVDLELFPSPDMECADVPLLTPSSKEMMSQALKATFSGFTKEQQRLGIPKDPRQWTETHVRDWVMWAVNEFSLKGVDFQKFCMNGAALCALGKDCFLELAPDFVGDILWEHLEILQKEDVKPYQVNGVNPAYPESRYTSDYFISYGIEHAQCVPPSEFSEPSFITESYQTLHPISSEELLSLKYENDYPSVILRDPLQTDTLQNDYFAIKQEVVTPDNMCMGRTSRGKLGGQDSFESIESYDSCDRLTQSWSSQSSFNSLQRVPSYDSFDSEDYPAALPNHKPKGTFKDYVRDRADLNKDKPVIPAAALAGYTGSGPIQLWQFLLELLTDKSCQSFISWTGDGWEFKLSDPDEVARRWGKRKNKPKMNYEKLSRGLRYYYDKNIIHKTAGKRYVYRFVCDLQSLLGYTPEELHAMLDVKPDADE
In words: co-IP; endogenous proteins in MDAH2774 lysate; precipitated with an anti-ETS1 or an anti-GSK3β antibody, control IgG; western blot; lysis buffer 20 mM Tris-Cl pH 7.4, 25 mM NaCl, 0.1% NP40; overnight at 4 °C.

The target of experiment [3] is 56-353/GSK3β (kinase domain of GSK3β, CBP tag) (human (by the printed RefSeq entry)) (UniProt P49841). In words: co-IP; 293 cells transfected with Halo-ETS1 and control vector, full length or truncated GSK3β constructs (CBP tag); ETS1 in the complex detected with an anti-Halo tag antibody; resin not told.
Experiment [4] addresses GSK3β full length (CBP tag) (human (by the printed RefSeq entry)) (UniProt P49841). The description is as above.
In experiment [5] the target is p300 (human (endogenous in 293)) (UniProt Q09472). In words: co-IP; 293 cells overexpressing Halo-ETS1 or Halo-ETS1-3A; precipitated with an anti-p300 antibody; detected with an anti-Halo tag antibody.

As for “HA-GSK3β (full-length GSK3β) (from UniProt P49841-2 1-433) (enzyme)”, the binding result in experiment [1] is “binds”.

“Glycogen synthase kinase-3β (endogenous) (from UniProt P49841 1-420) (enzyme)”: the binding entry in experiment [2] is on record as “binds”.

B1: Halo-ETS1 (full-length ETS1, Halo tag) (protein, UniProt P14921-3 1-485)
chain: T1 sequence
As to B1, the binding entry in experiment [3], in experiment [4] and in experiment [5] was “binds” each time.
